{"sequences": {"note": "The chains behind the UniProt entries cited, without tags or fusion partners. Residues count along the entry.", "UniProt Q96F46, residues 33-320": "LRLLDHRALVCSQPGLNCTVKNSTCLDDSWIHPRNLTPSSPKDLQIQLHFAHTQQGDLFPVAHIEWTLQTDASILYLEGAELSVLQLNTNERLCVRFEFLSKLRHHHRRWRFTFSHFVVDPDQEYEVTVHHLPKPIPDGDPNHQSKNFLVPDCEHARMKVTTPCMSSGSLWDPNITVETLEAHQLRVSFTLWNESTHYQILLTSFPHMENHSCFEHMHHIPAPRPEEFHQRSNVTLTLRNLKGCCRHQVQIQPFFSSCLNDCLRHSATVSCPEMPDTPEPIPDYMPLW", "UniProt Q16552, residues 24-155": "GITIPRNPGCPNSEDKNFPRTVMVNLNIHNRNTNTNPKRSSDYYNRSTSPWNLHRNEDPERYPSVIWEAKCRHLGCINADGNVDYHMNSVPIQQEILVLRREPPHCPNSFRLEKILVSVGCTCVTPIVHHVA"}, "source": "paper PMC4985813", "about": "“Binding site elucidation and structure guided design of macrocyclic IL-17A antagonists” (Scientific Reports, 2016)", "target": "IL-17RA-Fc fusion protein (UniProt Q96F46)", "assay": "FRET or BRET; 1 nM biotinylated IL-17A labeled with 0.67 nM Europium-Streptavidin, 6 nM IL-17RA-Fc labeled with 1 nM Alexa Fluor 647 antibody; 10 mM HEPES pH 7.4, 150 mM NaCl, 0.02% BSA, 0.01% Tween 20; room temperature, 3 h; 665/615 ratio; both purified", "note": "These are yes or no findings as the source states them, for the method shown. Some results given as binding are weak or reduced against the parent protein; the word gives no strength."}
{"substance": "Biotinylated Bap-tagged human IL-17A (from UniProt Q16552 24-155) (ligand)", "values": [{"measurement": "binding", "value": "binds"}]}
